Substitutions are numbered along the chain they refer to. These are yes or no findings as the source states them, for the method shown. A result given as binding can be weak or reduced; the word gives no strength.
B1: Hu23F4-13 (antibody, V domains shown)
VH: EVQLVQSGAEVKKPGATVKISCKVSGYTFTSHYLHWVQQAPGKGLEWIGWIFPGDDKTKYNEKFKGRATLTSDTSTDTAYMELSSLRSEDTAVYYCARGTKYLNWNFDVWGQGTTVTVSS
VL: DIQLTQSPSFLSASVGDRVTITCKANQNVGTTLAWYQQKPGKAPKLLIYSASYRYSGVPSRFSGSGSGTEFTLTISSLQPEDFATYYCHQYTTYPLTFGGGTKVEIK
B2: Hu23F4-27 (antibody, V domains shown)
VH: EVQLVQSGAEVKKPGASVKVSCKASGYTFTSHYLHWVRQAPGQGLEWMGWIFPGDDKTKYNEKFKGRVTMTSDTSISTAYMELSRLRSDDTAVYYCARGTKYLNWNFDVWGQGTTVTVSS
VL: B1 VL with A43S, L46A, S60D, E70D, Y87F
B3: Hu23F4-36 (antibody, V domains shown)
VH: B2 VH with G26D, F29L, M48I, V68A, M70L
VL: B1 VL
B4: Hu50C5-17 (antibody, V domains shown)
VH: EVQLVQSGAEVKKPGSSVKVSCKASGYIFSPYSIHWVRQAPGQGLEWIGYINPSTGYIEYNQHFKDRTTLTADKSTSTAYMELRSLRSEDTAVYYCARGGDYEGYFDYWGQGTTVTVSS
VL: DIQMTQSPSSLSASVGDRVTITCRLNENIYSFLAWYQQKPGKAPKLLVYNAETLAEGVPSRFSGSGSGTDFTLTISSLQPEDFATYYCQQHYGTPYTFGGGTKVEIK
B5: Hu50C5-23 (antibody, V domains shown)
VH: B4 VH with S30T
VL: B4 VL with G57D

Target: recombinant rhesus GM-CSF protein (rhesus)
Experiment: ELISA, plate-coated rhesus GM-CSF (FIG. 11)

binding, binds:
B1, B2, B3, B4, B5

Reference: US20180362632A1
